Test results published in patent publication US20170355771A1 (Biogen, published 2017).
Changes are numbered by the printed parent chain. Results are given in words; binding and its absence hold for the method and conditions named. Binding can be weak; no strength is given.

B1: humanized 34D10 Fab L0/H3 (Fab, V domains shown)
VH: EVQLVQSGGGLVKPGESLRLSCAASGFTFSAYAMSWVRQAPGKGLEWVASISSGGTTYYPDSVKRRFTISRDNAKNTLYLQMNSLRAEDTAVYYCTRGGDYGYALDYWGQGTLVTVSS
VL: EIVMTQSPATLSVSPGERATLSCRASSSVNYMYWYQQKPGQAPRLLIYYTSNLAPGIPARFSGSGSGTEFTLTISSLQSEDFAVYYCQQFSSSPWTFGQGTKVEIK
B2: humanized 34D10 Fab L3/H2 (Fab, V domains shown)
VH: B1 VH with Q6E, E16G, E46V, R66Q
VL: B1 VL with I2N, V13A, A19V, L21M, A42S, I57V, F70Y
B3: humanized 34D10 Fab L3/H3 (Fab, V domains shown)
VH: B1 VH
VL: B1 VL with I2N, V13A, A19V, L21M, A42S, I57V, F70Y
B4: humanized 34D10 Fab L3/H1 (Fab, V domains shown)
VH: B1 VH with K13Q, A49S, T90M
VL: B1 VL with I2N, V13A, A19V, L21M, A42S, I57V, F70Y
B5: humanized 34D10 Fab L3/H5 (Fab, V domains shown)
VH: B1 VH with Q3K, Q6E, E16G, K75R
VL: B1 VL with I2N, V13A, A19V, L21M, A42S, I57V, F70Y
B6: humanized 34D10 Fab L0/H2 (Fab, V domains shown)
VH: B1 VH with Q6E, E16G, E46V, R66Q
VL: B1 VL
notes: Fab; also called VL0/VH2
B7: humanized 34D10 Fab L3/H0 (Fab, V domains shown)
VH: B1 VH with Q6E, K13Q, E16G, E46V, A49S, R66Q, T90M
VL: B1 VL with I2N, V13A, A19V, L21M, A42S, I57V, F70Y
B8: humanized 34D10 Fab L3/H4 (Fab, V domains shown)
VH: B1 VH with A74S, K75R
VL: B1 VL with I2N, V13A, A19V, L21M, A42S, I57V, F70Y
B9: humanized 34D10 Fab L0/H4 (Fab, V domains shown)
VH: B1 VH with A74S, K75R
VL: B1 VL
B10: humanized 34D10 Fab L0/H1 (Fab, V domains shown)
VH: B1 VH with K13Q, A49S, T90M
VL: B1 VL
B11: humanized 34D10 Fab L0/H5 (Fab, V domains shown)
VH: B1 VH with Q3K, Q6E, E16G, K75R
VL: B1 VL
notes: Fab; also called VL0/VH5
B12: mouse Fab (34D10) (Fab, V domains shown)
VH: EVKLVESGGGLVKPGGSLKLSCAASGFTFSAYAMSWVRQTPEKRLEWVASISSGGTTYYPDSVKRRFTISRDNARNILYLQMSSLRSEDTAMYYCTRGGDYGYALDYWGQGTSVTVSS
VL: ENVLTQSPAIMSASLGEKVTMSCRASSSVNYMYWYQQKSDASPKLWIYYTSNLAPGVPARFSGSGSGNSYSLTISSMEGEDAATYYCQQFSSSPWTFGGGTKLEIK
notes: Fab; also called mouse 34D10 Fab
B13: L0/H0 (Fab, V domains shown)
VH: B1 VH with Q6E, K13Q, E16G, E46V, A49S, R66Q, T90M
VL: B1 VL
B14: L2/H1 (Fab, V domains shown)
VH: B1 VH with K13Q, A49S, T90M
VL: B1 VL with M4L, V13A, A19V, L21M, A42S, I57V, F70Y
B15: L2/H5 (Fab, V domains shown)
VH: B1 VH with Q3K, Q6E, E16G, K75R
VL: B1 VL with M4L, V13A, A19V, L21M, A42S, I57V, F70Y
B16: L1/H1 (Fab, V domains shown)
VH: B1 VH with K13Q, A49S, T90M
VL: B1 VL with M4L, I57V
B17: L2/H3 (Fab, V domains shown)
VH: B1 VH
VL: B1 VL with M4L, V13A, A19V, L21M, A42S, I57V, F70Y
B18: L1/H2 (Fab, V domains shown)
VH: B1 VH with Q6E, E16G, E46V, R66Q
VL: B1 VL with M4L, I57V
B19: L2/H2 (Fab, V domains shown)
VH: B1 VH with Q6E, E16G, E46V, R66Q
VL: B1 VL with M4L, V13A, A19V, L21M, A42S, I57V, F70Y
B20: L1/H5 (Fab, V domains shown)
VH: B1 VH with Q3K, Q6E, E16G, K75R
VL: B1 VL with M4L, I57V
B21: L2/H4 (Fab, V domains shown)
VH: B1 VH with A74S, K75R
VL: B1 VL with M4L, V13A, A19V, L21M, A42S, I57V, F70Y
B22: L1/H0 (Fab, V domains shown)
VH: B1 VH with Q6E, K13Q, E16G, E46V, A49S, R66Q, T90M
VL: B1 VL with M4L, I57V
B23: humanized 34D10 Fab L1/H3 (Fab, V domains shown)
VH: B1 VH
VL: B1 VL with M4L, I57V
notes: Fab; only variable domains are tied by name; also called VL1/VH3
B24: L2/H0 (Fab, V domains shown)
VH: B1 VH with Q6E, K13Q, E16G, E46V, A49S, R66Q, T90M
VL: B1 VL with M4L, V13A, A19V, L21M, A42S, I57V, F70Y
B25: L1/H4 (Fab, V domains shown)
VH: B1 VH with A74S, K75R
VL: B1 VL with M4L, I57V

The binders below were run against GPIIb/IIIa on gel-purified human platelets (human) (assay: flow cytometry on gel-purified human platelets).

binding	Binder
binds	B1
binds	B2
binds	B3
binds	B4
binds	B5
binds	B6
binds	B7
binds	B8
binds	B9
binds	B10
binds	B11
binds	B12

The binders below were run against GPIIb/IIIa on gel-purified human platelets (human) (assay: flow cytometry on gel-purified human platelets, PE-labeled anti-human Fab detection; EC50 = Fab concentration at half-maximal MFI).

binding	Binder
binds	B13
binds	B1
binds	B2
binds	B3
binds	B4
binds	B14
binds	B15
binds	B16
binds	B17
binds	B18
binds	B19
binds	B20
binds	B5
binds	B6
binds	B21
binds	B22
binds	B23
binds	B7
binds	B8
binds	B9
binds	B24
binds	B10
binds	B25
binds	B11
binds	B12

Each binder was assayed against GPIIb/IIIa on gel-purified human platelets (human) (assay: flow cytometry on human platelets (summary of Example 2)).

binding	Binder
binds	B6
binds	B11
binds	B12
